# Experimental data published in the supplement of paper PMC8426693.
# Some of the results follow. Most values come without repeats; read them as rough.
# How the values were obtained:
# Assay in all cases: 1H chemical shift perturbation upon RNA addition; higher = stronger binding
# Details in all cases: RNA concentration 10 µM; fragment concentration 200 µM; 293 K
# [1] = test system: SARS-CoV-2 3'-UTR RNA
# [2] = test system: SARS-CoV-2 3_SL3base RNA
# [3] = test system: SARS-CoV-2 5'-UTR RNA
# [4] = test system: SARS-CoV-2 3_s2m RNA
# [5] = test system: SARS-CoV-2 5_SL1 RNA
# [6] = test system: SARS-CoV-2 5_SL1234 RNA
# [7] = test system: SARS-CoV-2 5_SL4 RNA
# [8] = test system: SARS-CoV-2 3_SL1+2 RNA
structure (smiles),measurement,setting,value
CCOC(=O)c1cc(-c2ccc(C)cc2)no1,1H chemical shift perturbation upon RNA addition,[1],18 Hz
COc1ccc(C(=O)Nc2ccccc2F)cc1,1H chemical shift perturbation upon RNA addition,[1],7 Hz
Cc1ccc(Nc2ncnc3[nH]ncc23)cc1,1H chemical shift perturbation upon RNA addition,[1],8 Hz
Cc1ccccc1OCC(=O)Nc1ccccc1,1H chemical shift perturbation upon RNA addition,[1],4 Hz
O=C(Nc1ccon1)c1cccc(Cl)c1,1H chemical shift perturbation upon RNA addition,[1],8 Hz
same,1H chemical shift perturbation upon RNA addition,[2],9 Hz
same,1H chemical shift perturbation upon RNA addition,[3],3 Hz
COc1ccc(NC(=O)CN)cc1,1H chemical shift perturbation upon RNA addition,[3],5 Hz
CNCc1cnn(-c2ccccc2)c1,1H chemical shift perturbation upon RNA addition,[3],10 Hz
OCc1ccc(-n2cnc3ccccc32)cc1,1H chemical shift perturbation upon RNA addition,[1],1 Hz
same,1H chemical shift perturbation upon RNA addition,[3],2 Hz
Cl.NCc1cc(-c2ccccc2)no1,1H chemical shift perturbation upon RNA addition,[1],10 Hz
same,1H chemical shift perturbation upon RNA addition,[4],9 Hz
same,1H chemical shift perturbation upon RNA addition,[3],33 Hz
COc1ccc2sc(N)nc2c1,1H chemical shift perturbation upon RNA addition,[1],8 Hz
same,1H chemical shift perturbation upon RNA addition,[2],9 Hz
same,1H chemical shift perturbation upon RNA addition,[3],8 Hz
CC(N)c1ccc(-c2cncnc2)cc1 (configuration not stated),1H chemical shift perturbation upon RNA addition,[1],9 Hz
same,1H chemical shift perturbation upon RNA addition,[3],19 Hz
CNCC(=O)Nc1cc(C)ccn1,1H chemical shift perturbation upon RNA addition,[1],7 Hz
same,1H chemical shift perturbation upon RNA addition,[2],11 Hz
same,1H chemical shift perturbation upon RNA addition,[3],18 Hz
Cc1ccccc1OCC(=O)Nc1ncccn1,1H chemical shift perturbation upon RNA addition,[3],1 Hz
O=C(Nc1ccc2[nH]c(=O)[nH]c2c1)c1ccco1,1H chemical shift perturbation upon RNA addition,[1],8 Hz
same,1H chemical shift perturbation upon RNA addition,[2],8 Hz
same,1H chemical shift perturbation upon RNA addition,[3],5 Hz
CNC(=O)Nc1nc2ccc(OC)cc2s1,1H chemical shift perturbation upon RNA addition,[5],8 Hz
same,1H chemical shift perturbation upon RNA addition,[6],8 Hz
same,1H chemical shift perturbation upon RNA addition,[7],4 Hz
Cc1cc(N2CCNCC2)nc(C)n1,1H chemical shift perturbation upon RNA addition,[3],4 Hz
O=C(Nc1ccc(O)cc1)c1ccc(Cl)cc1,1H chemical shift perturbation upon RNA addition,[1],2 Hz
same,1H chemical shift perturbation upon RNA addition,[2],4 Hz
same,1H chemical shift perturbation upon RNA addition,[3],3 Hz
Cc1cccc(NC(=O)Nc2nc(C)cs2)c1,1H chemical shift perturbation upon RNA addition,[2],13 Hz
same,1H chemical shift perturbation upon RNA addition,[4],6 Hz
same,1H chemical shift perturbation upon RNA addition,[6],11 Hz
same,1H chemical shift perturbation upon RNA addition,[7],6 Hz
Cc1occc1C(=O)Nc1ccncc1,1H chemical shift perturbation upon RNA addition,[1],1 Hz
same,1H chemical shift perturbation upon RNA addition,[2],15 Hz
same,1H chemical shift perturbation upon RNA addition,[3],9 Hz
same,1H chemical shift perturbation upon RNA addition,[5],24 Hz
CCNCc1cccc2[nH]ccc12,1H chemical shift perturbation upon RNA addition,[3],10 Hz
CNC(=O)c1nc2ccccc2c(=O)[nH]1,1H chemical shift perturbation upon RNA addition,[1],8 Hz
same,1H chemical shift perturbation upon RNA addition,[3],5 Hz
CNCc1ccc(C(F)(F)F)cc1,1H chemical shift perturbation upon RNA addition,[8],7 Hz
same,1H chemical shift perturbation upon RNA addition,[2],11 Hz
O=C(Nc1ccc2ncccc2c1)c1ccccc1,1H chemical shift perturbation upon RNA addition,[1],7 Hz
same,1H chemical shift perturbation upon RNA addition,[2],8 Hz
same,1H chemical shift perturbation upon RNA addition,[3],7 Hz
CN(C)c1ccc(C(=O)Nc2ccncc2)cc1,1H chemical shift perturbation upon RNA addition,[6],12 Hz
same,1H chemical shift perturbation upon RNA addition,[7],12 Hz
Cc1c(Cl)cccc1NC(=O)CN.Cl,1H chemical shift perturbation upon RNA addition,[3],10 Hz
O=C(NO)c1ccc2ccccc2n1,1H chemical shift perturbation upon RNA addition,[3],9 Hz
CCCc1nnc(NC(=O)c2ccccn2)s1,1H chemical shift perturbation upon RNA addition,[3],6 Hz
O=C(OCc1ccc(Cl)cc1)c1cccnc1,1H chemical shift perturbation upon RNA addition,[1],7 Hz
same,1H chemical shift perturbation upon RNA addition,[3],3 Hz
COc1ccc2[nH]cc(CN(C)C)c2c1,1H chemical shift perturbation upon RNA addition,[3],18 Hz
CC(=O)Nc1ccc(-c2csc(N)n2)cc1,1H chemical shift perturbation upon RNA addition,[1],12 Hz
same,1H chemical shift perturbation upon RNA addition,[3],7 Hz
c1ccc(CCNc2nc3ccccc3[nH]2)cc1,1H chemical shift perturbation upon RNA addition,[1],7 Hz
same,1H chemical shift perturbation upon RNA addition,[3],17 Hz
O=C(Nc1ccccn1)c1cnccn1,1H chemical shift perturbation upon RNA addition,[3],4 Hz
c1nc(N2CCC2)c2[nH]cnc2n1,1H chemical shift perturbation upon RNA addition,[1],3 Hz
same,1H chemical shift perturbation upon RNA addition,[3],5 Hz
c1coc(CNc2nc3ccccc3[nH]2)c1,1H chemical shift perturbation upon RNA addition,[8],4 Hz
same,1H chemical shift perturbation upon RNA addition,[2],9 Hz
same,1H chemical shift perturbation upon RNA addition,[3],7 Hz

# Some of the entries above, set out differently:
structure (smiles) | measurement | setting | value
CNCc1cnn(-c2ccccc2)c1 | 1H chemical shift perturbation upon RNA addition | [3] | 10 Hz
OCc1ccc(-n2cnc3ccccc32)cc1 | 1H chemical shift perturbation upon RNA addition | [1] | 1 Hz
same | 1H chemical shift perturbation upon RNA addition | [3] | 2 Hz
Cl.NCc1cc(-c2ccccc2)no1 | 1H chemical shift perturbation upon RNA addition | [1] | 10 Hz
